From article PMC2765987 (2009) come the findings set out here.

The chains behind the UniProt entries cited, without tags or fusion partners. Where a name states a change or a piece, a line headed by the entry shows the natural chain unless it says otherwise.
UniProt Q5H9R7: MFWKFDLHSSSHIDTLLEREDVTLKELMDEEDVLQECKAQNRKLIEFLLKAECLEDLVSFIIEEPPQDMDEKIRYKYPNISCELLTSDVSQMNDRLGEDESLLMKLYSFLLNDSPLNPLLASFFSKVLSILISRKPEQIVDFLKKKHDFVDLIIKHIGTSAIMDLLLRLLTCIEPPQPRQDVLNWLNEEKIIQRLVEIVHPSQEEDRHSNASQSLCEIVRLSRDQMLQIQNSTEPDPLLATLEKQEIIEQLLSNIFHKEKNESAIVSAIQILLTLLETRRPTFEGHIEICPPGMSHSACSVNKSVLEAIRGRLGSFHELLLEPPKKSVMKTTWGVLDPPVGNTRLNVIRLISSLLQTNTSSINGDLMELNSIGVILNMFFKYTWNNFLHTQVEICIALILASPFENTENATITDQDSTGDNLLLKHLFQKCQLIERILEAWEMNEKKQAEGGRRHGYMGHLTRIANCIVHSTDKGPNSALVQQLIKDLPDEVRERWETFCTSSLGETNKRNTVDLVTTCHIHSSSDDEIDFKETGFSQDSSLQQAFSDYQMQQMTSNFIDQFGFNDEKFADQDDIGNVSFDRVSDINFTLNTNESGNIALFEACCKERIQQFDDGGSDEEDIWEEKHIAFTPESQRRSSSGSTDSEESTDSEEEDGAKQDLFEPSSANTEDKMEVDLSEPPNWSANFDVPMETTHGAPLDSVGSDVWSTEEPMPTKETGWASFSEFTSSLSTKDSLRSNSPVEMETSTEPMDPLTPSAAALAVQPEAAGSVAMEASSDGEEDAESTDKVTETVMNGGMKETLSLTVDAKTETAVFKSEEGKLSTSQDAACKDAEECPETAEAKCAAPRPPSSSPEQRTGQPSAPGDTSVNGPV

The target in this test is FLAG-tagged PP6R3 C-terminal region (512-873) (human) (UniProt Q5H9R7). Briefly: co-IP; FLAG-tagged PP6R3 and fragments expressed in HEK293 cells, precipitated with anti-FLAG (M2) beads; endogenous PP6c detected by immunoblotting. In general terms: Immunoblotting shows a protein as a band on a membrane.

Results are given in words; binding and its absence hold for the method and conditions named. In cells and extracts the contact can be indirect.

B1: PP6 catalytic subunit, endogenous (enzyme, UniProt O00743 1-305)
chain: MAPLDLDKYVEIARLCKYLPENDLKRLCDYVCDLLLEESNVQPVSTPVTVCGDIHGQFYDLCELFRTGGQVPDTNYIFMGDFVDRGYYSLETFTYLLALKAKWPDRITLLRGNHESRQITQVYGFYDECQTKYGNANAWRYCTKVFDMLTVAALIDEQILCVHGGLSPDIKTLDQIRTIERNQEIPHKGAFCDLVWSDPEDVDTWAISPRGAGWLFGAKVTNEFVHINNLKLICRAHQLVHEGYKFMFDEKLVTVWSAPNYCYRCGNIASIMVFKDVNTREPKLFRAVPDSERVIPPRTTTPYFL
Consider B1, for which the binding entry is on record as “no binding”.
